Measured values published in the supplement of paper PMC4683952.
The other results are listed elsewhere or left out. Cut-off read from the data, not from the text of the source: active = 2 or more and inactive = the rest. This data set is noisy: repeats of one test often differ as much as different tests do.

The molecules below were run on Lgr5 (MarsCy1-Lgr5-EGFP, U2OS) (assay: cell-surface Lgr5 expression (SCi1 fluorescence, background-subtracted) relative to WT DMSO (fold of DMSO control); higher = more Lgr5 at the plasma membrane). Conditions: U2OS MarsCy1-Lgr5-EGFP stable; treatment time: overnight; library: ActiProbe-5K (TimTec); 25 µM.

| Structure (SMILES) | cell-surface Lgr5 expression |
| --- | --- |
| CN(/N=C/c1ccc(Cl)cc1)C1=NS(=O)(=O)c2ccccc21 | inactive: 1.57 |
| COc1cc([N+](=O)[O-])ccc1[O-].O.[K+] | inactive: 1.24 |
| CC1(C)C2CCC(C2)C1(C)NC(=O)CNCCCN1CCOCC1 (stereo not drawn) | inactive: 1.49 |
| OCC1OC(Nc2ccc(Br)cc2)C(O)C1O (stereo not drawn) | inactive: 0.903 |
| CSc1nc(N)c(C#N)cc1C#N | inactive: 0.836 |
| O=S(=O)(Nc1ncccn1)c1ccc(-n2cccc2)cc1 | inactive: 0.992 |
| Cc1cc(N)nc(SC(C)CN(C)C)n1 (stereo not drawn) | inactive: 0.939 |
| CSc1nsc(SC)c1C(=O)NCCCn1nc(C(F)(F)F)c(Cl)c1C | inactive: 1 |
| O=S(=O)(Nc1ccc2c(c1)OCCO2)c1ccc2ccccc2c1 | inactive: 1.17 |
| COc1ccc2cc3[n+](cc2c1OC)CCc1cc2c(cc1-3)OCO2 | inactive: 1.17 |
| c1ccc2c(c1)-c1ccccc1C21SCCCS1 | inactive: 1.34 |
| Fc1ccc(-c2nnc(-c3ccc(Cl)cc3Cl)o2)cc1 | inactive: 1.06 |
| N#C/C(=C/c1cccs1)C(N)=S | inactive: 0.92 |
| CN1CCN(C(=O)C2C3C=CC(C3)C2C(=O)O)CC1 (stereo not drawn) | inactive: 1.1 |
| c1cn(-c2ccc(N3CCCCC3)nn2)cn1 | inactive: 0.957 |
| CC1(C2CC(C(F)(F)F)n3nc(C(=O)O)cc3N2)CC1 (stereo not drawn) | inactive: 1.23 |
| C#CC[N+](C)(C)CC(=O)c1ccccc1.[Br-] | inactive: 0.925 |
| Cn1cc(S(=O)(=O)Nc2ccc(Cl)c(Cl)c2)cn1 | inactive: 1.2 |
| C=CCNC(=S)NC1c2ccccc2Oc2ccccc21 | inactive: 0.605 |
| Cc1ncn(C23CC4CC(CC(C(=O)O)(C4)C2)C3)n1 | inactive: 1.09 |
| CN(C)c1ccc(/C=N/NC(=S)N/N=C/c2ccc(N(C)C)cc2)cc1 | inactive: 0.865 |
| Cn1c(=N)n(CC(=O)C23CC4CC(CC(C4)C2)C3)c2ccccc21 | inactive: 1.35 |

Quoted from the entries so far (2 entries):

| Structure (SMILES) | cell-surface Lgr5 expression |
| --- | --- |
| Cc1ncn(C23CC4CC(CC(C(=O)O)(C4)C2)C3)n1 | inactive: 1.09 |
| CN(C)c1ccc(/C=N/NC(=S)N/N=C/c2ccc(N(C)C)cc2)cc1 | inactive: 0.865 |

The results go on.

| Structure (SMILES) | cell-surface Lgr5 expression |
| --- | --- |
| Nc1ccc2c(c1)COCO2 | inactive: 1.18 |
| Oc1ccc(-c2cc(C(F)(F)C(F)F)on2)cc1 | inactive: 1.08 |
| CC(C)OC(=O)CCNc1n[nH]c(=O)[nH]c1=O | inactive: 1.25 |
| CC1=CC(C)(C)N(S(=O)(=O)c2ccc(C)cc2)c2cc(C)ccc21 | inactive: 1.52 |
| Cn1cccc1/C=N\N1CCN(C2c3ccccc3-c3ccccc32)CC1 | inactive: 1.42 |
| O=S(=O)(NC1CCCCC1)c1ccc2c(c1)OCCO2 | inactive: 1.13 |
| FC(F)(F)c1nc2ccccc2[nH]1 | inactive: 1.42 |
| COc1cc(-c2nnc(SCc3cc(Cl)cc4c3OCOC4)o2)cc(OC)c1OC | inactive: 1.36 |
| Cc1c(Br)c(-c2nnc(C34CC5CC(CC(C5)C3)C4)o2)nn1C | inactive: 1.32 |
| O=S1(=O)CCC(SCc2nnc(-c3ccccc3)o2)C1 (stereo not drawn) | inactive: 1.37 |
| O=C(O)CCCCc1cccs1 | inactive: 1.08 |
| O=C1CC(C(F)(F)F)=NN1c1nc2ccccc2s1 | inactive: 1.94 |
| C#CCOC(=O)C1C2C=CC(C2)C1C(=O)O (stereo not drawn) | inactive: 1.2 |
| Brc1cc(N2CCOCC2)cc2nonc12 | inactive: 1.33 |
| CN1CC=C(/C=C\c2ccco2)CC1 | inactive: 1.33 |
| C=CC[C@H]1CC(C)=C[C@@H](CC=C)N1.Cl | inactive: 1.15 |
| Cn1c(=O)oc2cc(S(=O)(=O)NCC3CC4CCC3C4)c(Cl)cc21 (stereo not drawn) | inactive: 1.22 |
| O=C(Nc1nonc1NC(=O)C12CC3CC(CC(C3)C1)C2)C12CC3CC(CC(C3)C1)C2 | inactive: 1.1 |
| S=c1[nH]nc(Cc2ccccc2)n1C1CCCCC1 | inactive: 1.32 |
| O=C(N/N=C/c1ccc(Br)o1)c1cccs1 | inactive: 0.897 |
| Cc1ccc2c(c1)-c1c(ss/c1=N/c1ccc(Cl)cc1Cl)C(C)(C)N2 | inactive: 0.96 |
| O=C(O)CCCNC(=O)c1cc(=O)[nH]c(=O)[nH]1 | inactive: 1.05 |

| Structure (SMILES) | cell-surface Lgr5 expression |
| --- | --- |
| N#Cc1ccc(CSCC(O)C(O)CSCc2ccc(C#N)cc2)cc1 (stereo not drawn) | inactive: 1 |
| OCCNC12CC3CC(CC(C3)C1)C2 | inactive: 1.3 |
| O=C([O-])COc1ccc2cc(Br)ccc2c1Br.[Na+] | inactive: 1.11 |
| COc1cc(-n2cnnn2)cc(S(=O)(=O)c2ccc(Cl)cc2)c1 | inactive: 1.28 |
| N#C/C(=C/c1ccc(Cl)cc1Cl)c1ccc(Cl)cc1 | inactive: 1.42 |
| O=C(O)c1nn2cc(-c3n[nH]c(-c4cnc5c(Cl)c(C(=O)O)nn5c4)c3[N+](=O)[O-])cnc2c1Cl | inactive: 1.15 |
| O=C1CCC(=O)c2oc3ccc(Cl)cc3c2N1 | inactive: 1.12 |
| C[C@@]1(C2(C(C[C@@H]1CC2)=O)CS(=O)(=O)O)C.N | inactive: 1.06 |
| COc1cc2c(cc1NS(=O)(=O)N1CCCC1)oc1ccccc12 | inactive: 1.01 |
| Cc1nc(N)sc1C(C)(C)C | inactive: 0.716 |
| O=C(NCc1ccco1)c1cc2n(n1)C(C(F)(F)F)CC(c1ccco1)N2 (stereo not drawn) | inactive: 1.2 |
| c1ccc2cc(Oc3ccc4ccccc4c3)ccc2c1 | inactive: 1.06 |
| Cn1c(=O)c2c(ncn2CCCO)n(C)c1=O | inactive: 1.18 |
| CSc1ccc(S(=O)(=O)Nc2ccc3c(c2)OCCO3)cc1 | inactive: 1.02 |
| CCOC(=O)c1cnc(SC)nc1N(C)C | inactive: 1.22 |
| O=C1NC(=S)S/C1=C\c1ccoc1 | inactive: 1.13 |
| Sc1nc(-c2ccccc2)c(-c2ccccc2)o1 | inactive: 0.803 |
| CCCCC/C=C\C(=O)NC1CC1 | inactive: 1.11 |
| CCCC/C(C)=N/NC(=O)c1cc(C)oc1C | inactive: 1.16 |
| O=C(c1cccs1)c1nonc1C(=O)c1cccs1 | inactive: 0.837 |
| CC(C)(C)C(O)CN1CCCC1 (stereo not drawn) | inactive: 1.17 |
| COC(=O)C1CN(C)CCC1=O (stereo not drawn) | inactive: 1.26 |

Copied from the list.
COc1cc2c(cc1NS(=O)(=O)N1CCCC1)oc1ccccc12 | cell-surface Lgr5 expression: inactive: 1.01
O=S(=O)(Nc1ncccn1)c1ccc(-n2cccc2)cc1 | cell-surface Lgr5 expression: inactive: 0.992
Cc1ccc2c(c1)-c1c(ss/c1=N/c1ccc(Cl)cc1Cl)C(C)(C)N2 | cell-surface Lgr5 expression: inactive: 0.96
Cc1nc(N)sc1C(C)(C)C | cell-surface Lgr5 expression: inactive: 0.716
C[C@@]1(C2(C(C[C@@H]1CC2)=O)CS(=O)(=O)O)C.N | cell-surface Lgr5 expression: inactive: 1.06

(next part)

| Structure (SMILES) | cell-surface Lgr5 expression |
| --- | --- |
| Cc1cc2n(n1)C(C(F)(F)F)CC(C)N2 (stereo not drawn) | inactive: 1.35 |
| Cc1nn(C)cc1C(C)NC(=O)c1c(Br)c(C)nn1C (stereo not drawn) | inactive: 0.886 |
| O=C1N2CCSC2=NC1(Nc1ccccn1)C(F)(F)F (stereo not drawn) | inactive: 0.985 |
| O=S(=O)(N1CCCC1)N1CCN(c2ccccc2F)CC1 | inactive: 0.854 |
| O=C(CSc1nc2[nH]c(=O)cc(O)c2s1)Nc1nncs1 | inactive: 1.15 |
| Nc1nonc1-c1noc(-c2cccnc2)n1 | inactive: 1.04 |
| COCCCN1C(=O)/C(=C/c2ccco2)SC1=S | inactive: 1.56 |
| N#Cc1c(-c2ccccc2)cc(-c2ccccc2)[nH]c1=S | inactive: 1.21 |
| Cc1[nH]nc(C(F)(F)F)c1Cl | inactive: 1.11 |
| O=[N+]([O-])c1ccc(SC2CCCCC2)c(C2SCCS2)c1 | inactive: 1.31 |
| Oc1cc2ccccc2cc1-c1nnc(CCl)o1 | inactive: 1.54 |
| Cc1ccc(/C(N)=N/O)n1C | inactive: 0.933 |
| Cc1cc(C)c(CSc2nc(C)cc(O)n2)c(C)c1 | inactive: 1.04 |
| CCSc1sc(CN(C)C)cc1/C=N\O | inactive: 1.15 |
| CCNC(=S)n1ccc(C)n1 | inactive: 1.06 |
| Cc1ccc(S(=O)(=O)N2CC(C)N(S(C)(=O)=O)C2)cc1 (stereo not drawn) | inactive: 1.25 |
| Cc1ccsc1CN(Cc1sccc1C)CC(C)O (stereo not drawn) | inactive: 1.1 |
| c1cc2[nH]c3c(c2c2nonc12)CCCC3 | inactive: 0.367 |
| O=C(CSc1nsc(SCC(=O)N2CCCCC2)n1)N1CCCCC1 | inactive: 1.09 |
| C=CCN(CC=C)S(=O)(=O)c1ccc(F)cc1 | inactive: 1 |
| O=C(O)C1Nc2c(Cl)cc(Cl)c(Cl)c2C2C=CCC12 (stereo not drawn) | inactive: 0.887 |
| Sc1nnc(-c2ccccc2)n1/N=C\C=C/c1ccccc1 | inactive: 1.08 |

| Structure (SMILES) | cell-surface Lgr5 expression |
| --- | --- |
| CS(=O)(=O)c1ccc(S(C)(=O)=O)s1 | inactive: 1.2 |
| CC1CCC2(CC1)C(C#N)=C(S)NC(=O)C2C#N (stereo not drawn) | inactive: 1.16 |
| COc1cc(-c2nc3sc(-c4ccc(OC5CCCC5)c(OC)c4)nc3s2)ccc1OC1CCCC1 | inactive: 1.37 |
| Oc1ccc2c(c1)c1c3n2CCNC3CCC1 (stereo not drawn) | inactive: 1.23 |
| COc1ccc(S(=O)(=O)Nc2ccc3c(c2)OCO3)cc1Br | inactive: 0.82 |
| CCOC(=O)c1c(NC(=O)CSC2=NCCS2)sc2c1CCC2 | inactive: 1.19 |
| c1(nc(N)sc1)/C=C(\Cl)Cl | inactive: 0.864 |
| COc1cc(-c2nnc(SC)n2-c2ccc3c(c2)OCO3)cc(OC)c1OC | inactive: 1.67 |
| C(=C/N1CCOCC1)(/C#N)C#N | inactive: 1.17 |
| c1ccc(cc1)C(c1ccccc1)N1CCN(CC1)\N=C1/c2c(cccc2)c2c1cccc2 | inactive: 1.17 |
| COCc1nnn(-c2nonc2N)c1C(=O)N/N=C/C1CC=CCC1 (stereo not drawn) | inactive: 0.96 |
| O=C1CCCN1c1ccc(S(=O)(=O)[O-])cc1 | inactive: 1.1 |
| COC(=O)c1c(C(=O)OC)c2n(c1C)[C@@H](c1cccs1)SC2 | inactive: 0.923 |
| Cc1ccc2c(n1)sc1c(O)cc(O)nc12 | inactive: 1.16 |
| Oc1nonc1N1CCOCC1 | inactive: 1.48 |
| O=C1CCCCC1C1(O)C(=O)Nc2ccc(Br)cc21 (stereo not drawn) | inactive: 1.27 |
| CSc1nnnn1-c1ccc(F)cc1 | inactive: 0.906 |
| O=S(=O)(NCC1CCCO1)c1ccc(Br)cc1 (stereo not drawn) | inactive: 1.33 |
| Cn1c(S)nnc1C12CC3CC(CC(C3)C1)C2 | inactive: 1.27 |
| CC(=O)CSC(=S)N(CCN(Cc1cccs1)C(=S)SCC(C)=O)Cc1cccs1 | inactive: 1.28 |
